Measurements reported in PubChem BioAssay AID1259254 (NCATS, 2017)
The whole screen tested about 59,000 reagents; below is an unselected part. About 1,550 of all reagents (2.6%) were called active. 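G2 share is only a proxy for re-replication; each gene was hit by three separate siRNAs, and active genes were retested.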 The raw values are shown without normalisation. Entries without a mark were called inactive. The numbers tell different reagents against one gene apart. Not given: the amount of reagent.

- Assay: 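Finding genes that stop cells copying their DNA twice in one cycle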 (primary screen)
- Cell system: human HCT116 colorectal cancer cells
- Knock-down reagent: single siRNA against human genes
- Duration: 3 days
- Measured: 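Imaged Hoechst DNA stain sorts each cell into a cycle phase by DNA amount; per plate, G2 fraction set to 0% for non-targeting and 100% for GMNN siRNA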
- Direction: G2 robust z-score and G2 cells, % of GMNN control: higher = more G2 cells, more excess DNA replication; raw share of cells in G2: higher = larger share of cells with G2 DNA content
- Active means: 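Active siRNAs have a G2 robust z of 5 or more median absolute deviations over the median, which in these data means about 38% or higher of GMNN control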

Target gene	siRNA no.	G2 robust z-score	G2 cells, % of GMNN control	raw share of cells in G2 (%)
RGMB	1	0.446	6.1	5.87
RGMB	2	2.3	19.2	10.5
RGMB	3	-0.00304	2.95	4.16
BTBD2	1	0.471	6.28	6.69
BTBD2	2	-0.975	-3.89	4.72
BTBD2	3	-0.832	-2.88	3.13
PRKRIP1	1	-0.453	-0.216	4.35
PRKRIP1	2	-0.479	-0.402	4.13
PRKRIP1	3	3.16	25.2	9.27
RPL37A	1	5.08 (active)	38.7	21.4
RPL37A	2	2.02	17.2	11
RPL37A	3	4.19	32.4	15.1
ACADS	1	0.0159	3.08	5.77
ACADS	2	1.32	12.3	9.45
ACADS	3	-0.984	-3.96	2.52
CACNG2	1	1.83	15.8	11
CACNG2	2	1.5	13.5	9.35
CACNG2	3	-0.744	-2.27	3.49
SLC17A9	1	-1.08	-4.6	2.58
SLC17A9	2	0.87	9.09	8.68
SLC17A9	3	-1.13	-4.98	1.38
TYMP	1	1.98	16.9	9.67
TYMP	2	-0.402	0.137	5.32
TYMP	3	1.82	15.8	11
MADCAM1	1	1.34	12.4	10.6
MADCAM1	2	-0.587	-1.16	3.43
MADCAM1	3	3.14	25.1	12.2
BTBD17	1	-0.597	-1.23	3.35
BTBD17	2	-0.974	-3.89	1.71
BTBD17	3	-0.813	-2.75	3.45

A few values from the list.
For “raw share of cells in G2 (%)”, RPL37A #1 has 21.4 (active)
RGMB #1, raw share of cells in G2 (%) → 5.87
